Results from the supplement of paper PMC12819154, “High-throughput peptide-centric local stability assay extends protein–ligand identification to membrane proteins, tissues and bacteria” (Nature Structural & Molecular Biology, 2025).
The list shows a part of the results. Small differences around the control level are noise.

The chains behind the UniProt entries cited, without tags or fusion partners. Where a name states a change or a piece, a line headed by the entry shows the natural chain unless it says otherwise.
UniProt P02765: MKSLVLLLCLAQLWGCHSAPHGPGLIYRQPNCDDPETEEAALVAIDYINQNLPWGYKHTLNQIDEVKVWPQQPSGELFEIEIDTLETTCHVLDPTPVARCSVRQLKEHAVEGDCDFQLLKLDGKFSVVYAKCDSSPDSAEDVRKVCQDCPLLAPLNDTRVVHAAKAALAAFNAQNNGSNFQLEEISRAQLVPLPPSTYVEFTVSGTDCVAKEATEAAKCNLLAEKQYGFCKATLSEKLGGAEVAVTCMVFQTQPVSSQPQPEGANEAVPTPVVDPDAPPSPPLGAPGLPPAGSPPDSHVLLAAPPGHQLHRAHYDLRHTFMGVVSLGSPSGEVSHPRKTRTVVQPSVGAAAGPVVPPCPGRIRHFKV
UniProt P05976, whole entry: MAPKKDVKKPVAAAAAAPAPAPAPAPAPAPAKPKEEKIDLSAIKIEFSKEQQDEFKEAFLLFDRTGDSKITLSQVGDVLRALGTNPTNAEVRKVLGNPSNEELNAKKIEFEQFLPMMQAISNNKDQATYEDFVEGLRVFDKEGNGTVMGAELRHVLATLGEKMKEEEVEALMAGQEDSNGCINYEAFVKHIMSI
UniProt P10768: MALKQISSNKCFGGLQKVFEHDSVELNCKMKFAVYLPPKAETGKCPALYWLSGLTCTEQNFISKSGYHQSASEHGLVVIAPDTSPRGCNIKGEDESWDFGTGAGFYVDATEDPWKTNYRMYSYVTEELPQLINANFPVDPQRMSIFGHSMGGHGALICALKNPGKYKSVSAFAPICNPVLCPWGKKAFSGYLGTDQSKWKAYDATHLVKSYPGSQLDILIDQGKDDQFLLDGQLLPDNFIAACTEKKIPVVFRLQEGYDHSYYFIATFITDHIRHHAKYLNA
UniProt P04083: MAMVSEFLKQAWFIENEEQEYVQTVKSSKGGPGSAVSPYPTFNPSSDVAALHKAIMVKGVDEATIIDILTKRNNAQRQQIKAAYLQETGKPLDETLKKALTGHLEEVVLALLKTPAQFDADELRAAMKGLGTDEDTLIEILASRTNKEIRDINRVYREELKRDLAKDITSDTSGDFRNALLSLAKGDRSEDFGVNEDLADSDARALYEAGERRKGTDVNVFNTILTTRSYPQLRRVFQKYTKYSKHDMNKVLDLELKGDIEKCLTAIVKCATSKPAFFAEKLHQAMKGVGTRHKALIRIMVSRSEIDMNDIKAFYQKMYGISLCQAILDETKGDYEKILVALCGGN
UniProt P12694: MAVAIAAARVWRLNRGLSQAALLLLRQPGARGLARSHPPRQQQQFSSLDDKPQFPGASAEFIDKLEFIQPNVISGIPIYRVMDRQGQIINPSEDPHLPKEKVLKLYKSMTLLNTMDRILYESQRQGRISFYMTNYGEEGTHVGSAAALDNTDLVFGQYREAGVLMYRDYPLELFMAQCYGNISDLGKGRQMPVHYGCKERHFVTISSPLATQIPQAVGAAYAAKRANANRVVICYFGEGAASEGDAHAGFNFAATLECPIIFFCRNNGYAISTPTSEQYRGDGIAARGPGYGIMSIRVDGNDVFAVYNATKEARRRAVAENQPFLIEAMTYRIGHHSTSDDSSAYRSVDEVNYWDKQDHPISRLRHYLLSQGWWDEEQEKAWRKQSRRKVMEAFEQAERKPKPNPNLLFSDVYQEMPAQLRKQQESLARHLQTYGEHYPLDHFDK
UniProt P0DPB6, whole entry: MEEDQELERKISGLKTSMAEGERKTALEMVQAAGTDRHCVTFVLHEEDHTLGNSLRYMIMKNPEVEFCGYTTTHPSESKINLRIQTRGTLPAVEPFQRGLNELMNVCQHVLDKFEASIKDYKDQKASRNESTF
UniProt P08240: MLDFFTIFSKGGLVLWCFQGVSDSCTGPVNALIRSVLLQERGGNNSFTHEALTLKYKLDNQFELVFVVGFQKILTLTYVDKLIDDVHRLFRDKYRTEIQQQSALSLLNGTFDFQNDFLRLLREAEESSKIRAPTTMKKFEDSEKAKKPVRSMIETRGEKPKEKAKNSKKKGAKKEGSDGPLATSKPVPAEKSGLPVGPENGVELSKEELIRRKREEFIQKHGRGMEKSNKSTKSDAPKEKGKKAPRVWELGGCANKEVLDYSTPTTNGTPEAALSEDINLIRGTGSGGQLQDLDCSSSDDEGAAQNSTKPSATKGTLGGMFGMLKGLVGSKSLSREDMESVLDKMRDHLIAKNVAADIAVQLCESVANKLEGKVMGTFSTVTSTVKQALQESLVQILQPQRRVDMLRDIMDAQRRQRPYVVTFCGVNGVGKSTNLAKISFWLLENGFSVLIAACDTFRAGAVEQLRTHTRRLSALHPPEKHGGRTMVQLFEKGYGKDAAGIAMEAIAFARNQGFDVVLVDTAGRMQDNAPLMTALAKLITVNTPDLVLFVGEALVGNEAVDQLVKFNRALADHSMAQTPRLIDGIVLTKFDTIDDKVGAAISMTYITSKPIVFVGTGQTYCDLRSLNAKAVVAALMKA
UniProt P02461, whole entry: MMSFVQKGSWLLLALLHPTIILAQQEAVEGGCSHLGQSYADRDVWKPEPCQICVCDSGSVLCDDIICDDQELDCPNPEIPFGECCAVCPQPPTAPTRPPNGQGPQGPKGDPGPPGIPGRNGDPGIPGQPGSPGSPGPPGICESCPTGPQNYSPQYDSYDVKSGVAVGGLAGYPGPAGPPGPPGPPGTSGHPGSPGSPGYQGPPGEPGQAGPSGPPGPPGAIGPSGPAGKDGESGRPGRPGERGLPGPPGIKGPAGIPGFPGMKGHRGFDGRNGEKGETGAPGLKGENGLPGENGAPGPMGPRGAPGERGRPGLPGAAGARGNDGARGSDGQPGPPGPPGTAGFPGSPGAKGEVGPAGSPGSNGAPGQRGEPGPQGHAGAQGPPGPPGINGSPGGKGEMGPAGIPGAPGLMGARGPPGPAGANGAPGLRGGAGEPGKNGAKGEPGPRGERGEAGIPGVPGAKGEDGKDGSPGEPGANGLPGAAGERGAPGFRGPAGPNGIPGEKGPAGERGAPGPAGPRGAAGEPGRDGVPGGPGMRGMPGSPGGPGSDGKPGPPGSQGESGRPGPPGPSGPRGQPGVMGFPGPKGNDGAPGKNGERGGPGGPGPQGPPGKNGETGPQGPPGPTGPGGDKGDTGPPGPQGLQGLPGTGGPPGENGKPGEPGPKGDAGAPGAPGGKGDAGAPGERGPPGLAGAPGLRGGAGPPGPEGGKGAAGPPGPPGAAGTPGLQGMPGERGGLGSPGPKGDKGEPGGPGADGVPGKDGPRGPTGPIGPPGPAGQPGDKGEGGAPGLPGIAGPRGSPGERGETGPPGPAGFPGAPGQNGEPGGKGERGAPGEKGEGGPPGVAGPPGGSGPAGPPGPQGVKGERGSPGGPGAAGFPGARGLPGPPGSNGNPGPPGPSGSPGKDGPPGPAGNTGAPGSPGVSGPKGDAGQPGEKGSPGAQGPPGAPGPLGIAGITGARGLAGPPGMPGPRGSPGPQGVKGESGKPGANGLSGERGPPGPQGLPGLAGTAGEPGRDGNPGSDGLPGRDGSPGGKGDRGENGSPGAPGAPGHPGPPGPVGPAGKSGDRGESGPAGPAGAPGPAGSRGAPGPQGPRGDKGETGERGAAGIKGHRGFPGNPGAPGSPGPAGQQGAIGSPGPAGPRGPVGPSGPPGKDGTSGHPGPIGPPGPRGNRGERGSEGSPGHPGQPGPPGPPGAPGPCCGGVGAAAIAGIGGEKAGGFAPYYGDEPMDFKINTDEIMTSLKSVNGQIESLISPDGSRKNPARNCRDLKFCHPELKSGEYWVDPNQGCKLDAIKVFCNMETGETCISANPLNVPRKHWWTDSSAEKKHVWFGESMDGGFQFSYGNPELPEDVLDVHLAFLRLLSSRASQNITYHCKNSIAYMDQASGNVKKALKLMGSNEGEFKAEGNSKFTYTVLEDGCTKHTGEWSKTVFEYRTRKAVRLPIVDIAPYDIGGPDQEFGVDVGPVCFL
UniProt P05937: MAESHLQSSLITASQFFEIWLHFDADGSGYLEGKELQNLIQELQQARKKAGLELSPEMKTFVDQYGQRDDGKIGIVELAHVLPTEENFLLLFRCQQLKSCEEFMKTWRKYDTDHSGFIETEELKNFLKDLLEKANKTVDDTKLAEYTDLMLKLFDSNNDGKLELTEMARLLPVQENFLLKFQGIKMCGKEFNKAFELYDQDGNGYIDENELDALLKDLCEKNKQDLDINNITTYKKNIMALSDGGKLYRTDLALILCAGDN
UniProt P07108: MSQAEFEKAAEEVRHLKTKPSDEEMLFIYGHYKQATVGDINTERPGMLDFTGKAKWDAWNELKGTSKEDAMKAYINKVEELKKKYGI
UniProt P07237: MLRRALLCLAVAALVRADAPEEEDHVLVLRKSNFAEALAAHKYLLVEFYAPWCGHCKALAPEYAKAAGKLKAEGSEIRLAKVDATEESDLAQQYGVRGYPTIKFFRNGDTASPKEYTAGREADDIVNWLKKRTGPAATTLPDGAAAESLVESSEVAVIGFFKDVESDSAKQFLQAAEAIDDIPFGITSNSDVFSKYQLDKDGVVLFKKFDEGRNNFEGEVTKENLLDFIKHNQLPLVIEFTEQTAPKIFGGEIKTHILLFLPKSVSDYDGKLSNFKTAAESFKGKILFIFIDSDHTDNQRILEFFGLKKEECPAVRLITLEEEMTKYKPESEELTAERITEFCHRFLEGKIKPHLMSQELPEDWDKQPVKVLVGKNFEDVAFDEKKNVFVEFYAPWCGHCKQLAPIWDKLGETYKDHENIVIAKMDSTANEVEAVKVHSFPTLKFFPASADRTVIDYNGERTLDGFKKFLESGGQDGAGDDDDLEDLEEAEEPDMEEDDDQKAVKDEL
UniProt P11182, whole entry: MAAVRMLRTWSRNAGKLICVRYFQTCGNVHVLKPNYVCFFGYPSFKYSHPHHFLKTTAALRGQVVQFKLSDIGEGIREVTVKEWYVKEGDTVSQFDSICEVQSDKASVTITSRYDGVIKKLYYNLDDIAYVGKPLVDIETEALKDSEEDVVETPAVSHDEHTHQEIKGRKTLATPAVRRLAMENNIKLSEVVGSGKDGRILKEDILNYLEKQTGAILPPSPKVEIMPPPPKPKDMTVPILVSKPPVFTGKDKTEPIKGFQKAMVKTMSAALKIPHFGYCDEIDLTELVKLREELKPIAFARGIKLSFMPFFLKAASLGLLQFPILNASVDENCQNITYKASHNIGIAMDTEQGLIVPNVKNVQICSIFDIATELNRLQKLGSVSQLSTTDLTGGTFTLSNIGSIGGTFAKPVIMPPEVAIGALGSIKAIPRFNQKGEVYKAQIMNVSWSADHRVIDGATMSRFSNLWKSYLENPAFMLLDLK
UniProt P13674: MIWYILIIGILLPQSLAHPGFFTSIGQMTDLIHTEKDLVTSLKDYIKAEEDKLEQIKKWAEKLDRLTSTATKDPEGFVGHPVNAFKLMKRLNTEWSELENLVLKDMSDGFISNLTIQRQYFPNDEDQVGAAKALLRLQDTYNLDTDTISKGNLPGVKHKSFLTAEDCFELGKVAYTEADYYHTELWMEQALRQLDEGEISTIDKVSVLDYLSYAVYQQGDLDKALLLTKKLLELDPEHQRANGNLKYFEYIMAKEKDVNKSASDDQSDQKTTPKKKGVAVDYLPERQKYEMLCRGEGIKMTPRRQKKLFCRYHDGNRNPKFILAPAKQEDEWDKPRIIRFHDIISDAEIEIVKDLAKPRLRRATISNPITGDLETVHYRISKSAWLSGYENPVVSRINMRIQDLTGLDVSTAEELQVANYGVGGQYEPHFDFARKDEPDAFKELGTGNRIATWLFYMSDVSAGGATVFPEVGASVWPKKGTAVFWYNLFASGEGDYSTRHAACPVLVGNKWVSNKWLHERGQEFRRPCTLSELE
UniProt P05387, whole entry: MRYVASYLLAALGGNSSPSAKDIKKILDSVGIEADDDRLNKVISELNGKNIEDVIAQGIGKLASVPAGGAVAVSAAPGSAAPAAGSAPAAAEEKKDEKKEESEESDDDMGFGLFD
UniProt P04731: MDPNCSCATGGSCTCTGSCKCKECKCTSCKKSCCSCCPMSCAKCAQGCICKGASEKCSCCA
UniProt P10809, whole entry: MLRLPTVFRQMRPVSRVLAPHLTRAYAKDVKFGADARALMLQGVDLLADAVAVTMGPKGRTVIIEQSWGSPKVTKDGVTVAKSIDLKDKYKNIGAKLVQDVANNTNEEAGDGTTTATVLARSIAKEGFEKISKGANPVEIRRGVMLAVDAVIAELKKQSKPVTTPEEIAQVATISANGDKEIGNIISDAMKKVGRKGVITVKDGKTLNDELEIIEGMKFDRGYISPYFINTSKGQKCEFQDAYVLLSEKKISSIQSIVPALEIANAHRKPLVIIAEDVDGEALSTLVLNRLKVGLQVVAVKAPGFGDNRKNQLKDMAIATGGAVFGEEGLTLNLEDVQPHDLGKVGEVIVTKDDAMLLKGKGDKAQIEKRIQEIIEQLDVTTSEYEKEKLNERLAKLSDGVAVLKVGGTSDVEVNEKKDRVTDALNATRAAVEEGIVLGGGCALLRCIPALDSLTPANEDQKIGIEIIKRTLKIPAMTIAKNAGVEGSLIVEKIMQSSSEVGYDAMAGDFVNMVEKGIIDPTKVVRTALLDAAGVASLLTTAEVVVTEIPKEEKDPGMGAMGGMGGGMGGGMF
UniProt P07311: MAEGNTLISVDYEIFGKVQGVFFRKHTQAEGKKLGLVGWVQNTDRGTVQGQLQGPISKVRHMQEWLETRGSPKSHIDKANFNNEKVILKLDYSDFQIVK

The targets below were run with Cc1nc(Nc2ncc(C(=O)Nc3c(C)cccc3Cl)s2)cc(N2CCN(CCO)CC2)n1 [dasatinib] (assay: log2 fold change of tryptic peptide abundance, ligand vs vehicle (limited proteolysis) (log2 ratio); higher = more trypsin-susceptible (destabilized)). Conditions: ligand concentration: 5 uM; sample: K562 cleared lysate.
In the case of “LMNA (peptide sequence: EAALSTALSEKR, peptide start residue: 145) (UniProt P02545)”, the log2 fold change is reported as -0.316. “PFKM (peptide sequence: VLVVHDGFEGLAK, peptide start residue: 433) (UniProt P08237)” was tested, and the log2 fold change was 0.289. Work on “APRT (peptide sequence: ADSELQLVEQR, peptide start residue: 2) (UniProt P07741)” yielded a log2 fold change of 0.0665. “AHSG (peptide sequence: CDSSPDSAEDVR, peptide start residue: 132) (UniProt P02765)” showed a log2 fold change of 0.12. In the case of “CTSA (peptide sequence: SMNSQYLK, peptide start residue: 376) (UniProt P10619)”, the log2 fold change is reported as -0.428. In the case of “ALDH2 (peptide sequence: ILGYINTGK, peptide start residue: 370) (UniProt P05091)”, the log2 fold change is reported as 0.193. “MYL1 (peptide sequence: HVLATLGEK, peptide start residue: 157) (UniProt P05976)” showed a log2 fold change of -0.154. “PDIA4 (peptide sequence: TFDSIVMDPK, peptide start residue: 534) (UniProt P13667)” gave a log2 fold change of 0.152. Target “ESD (peptide sequence: AFSGYLGTDQSK, peptide start residue: 187) (UniProt P10768)” has a log2 fold change of -0.245. “ANXA1 (peptide sequence: GVDEATIIDILTKRNNAQR, peptide start residue: 59) (UniProt P04083)” was tested, and the log2 fold change was 0.506. “NR2F6 (peptide sequence: AQYPSQPQR, peptide start residue: 341) (UniProt P10588)” was tested, and the log2 fold change was -0.189. With “BCKDHA (peptide sequence: KVMEAFEQAER, peptide start residue: 389) (UniProt P12694)” the log2 fold change was -1.24. Target “POLR1D (peptide sequence: GTLPAVEPFQR, peptide start residue: 88) (UniProt P0DPB6)” has a log2 fold change of -0.129. In the case of “CYC1 (peptide sequence: GLLSSLDHTSIR, peptide start residue: 100) (UniProt P08574)”, the log2 fold change is reported as 0.00144. For “CYP2D6 (peptide sequence: PFRPNGLLDK, peptide start residue: 171) (UniProt P10635)”, the log2 fold change was -0.127. For “UniProt P08240 (peptide sequence: TMVQLFEK, peptide start residue: 485)”, the log2 fold change was -0.251. Work on “COL3A1 (peptide sequence: GESGPAGPAGAPGPAGSR, peptide start residue: 1065) (UniProt P02461)” yielded a log2 fold change of 0.0584. In the case of “CALB1 (peptide sequence: LAEYTDLMLK, peptide start residue: 143) (UniProt P05937)”, the log2 fold change is reported as 0.247. Target “DBI (peptide sequence: GTSKEDAMK, peptide start residue: 64) (UniProt P07108)” has a log2 fold change of 0.342. “TK1 (peptide sequence: YSSSFCTHDR, peptide start residue: 61) (UniProt P04183)” was tested, and the log2 fold change was 0.117. “P4HB (peptide sequence: ALAPEYAK, peptide start residue: 58) (UniProt P07237)” gave a log2 fold change of 0.094. In the case of “DBT (peptide sequence: QTGAILPPSPK, peptide start residue: 212) (UniProt P11182)”, the log2 fold change is reported as -0.622. “P4HA1 (peptide sequence: ATISNPITGDLETVHYR, peptide start residue: 363) (UniProt P13674)” gave a log2 fold change of 0.775. “RPLP2 (peptide sequence: ILDSVGIEADDDRLNKVISELNGK, peptide start residue: 26) (UniProt P05387)” gave a log2 fold change of 0.627. Target “MTHFD2 (peptide sequence: EGAAVIDVGINRVHDPVTAKPK, peptide start residue: 267) (UniProt P13995)” has a log2 fold change of 0.736. “UniProt P01112 (peptide sequence: KLNPPDESGPGCMSCK, peptide start residue: 170)” showed a log2 fold change of 0.619. Work on “UniProt P04731 (peptide sequence: CAQGCICK, peptide start residue: 44)” yielded a log2 fold change of 0.0197. For “FTH1 (peptide sequence: KMGAPESGLAEYLFDK, peptide start residue: 158) (UniProt P02794)”, the log2 fold change was -0.533. For “LGALS1 (peptide sequence: LPDGYEFK, peptide start residue: 101) (UniProt P09382)”, the log2 fold change was 0.156. For “HSPD1 (peptide sequence: VGGTSDVEVNEKK, peptide start residue: 406) (UniProt P10809)”, the log2 fold change was -0.0849. Target “ZBTB48 (peptide sequence: PHVCEFCSHAFTQK, peptide start residue: 464) (UniProt P10074)” has a log2 fold change of -0.461. For “ACYP1 (peptide sequence: GTVQGQLQGPISK, peptide start residue: 46) (UniProt P07311)”, the log2 fold change was 0.32. In the case of “RPS17 (peptide sequence: GISIKLQEEERER, peptide start residue: 68) (UniProt P08708)”, the log2 fold change is reported as -0.308. “ASNS (peptide sequence: ELYLFDVLR, peptide start residue: 396) (UniProt P08243)” gave a log2 fold change of 0.287. With “MIF (peptide sequence: PMFIVNTNVPR, peptide start residue: 2) (UniProt P14174)” the log2 fold change was -0.0562. For “ALDOA (peptide sequence: AAQEEYVK, peptide start residue: 323) (UniProt P04075)”, the log2 fold change was 0.0728.
